Data from patent US20240207427A1 (priority 2021, published 2024).

Assay: general procedure: peptide synthesis; 2-chloro-trityl chloride or rink acid; cellulose solid support for library; HATU/DIPEA
Settings: conjugation step

Substance	conjugation yield	crude purity (method not given)	final purity (method not given)	conjugation yield (over two steps)	conjugation yield (over two steps+purification)
mp-Ala-Ser-Glu-PAB-Auristatin E	42.5%				
mp-D-Leu-Ala-Glu-PABC-MMAE		78.0%	98.6%	72%	71%
